# Values of other authors, collected in patent US10034846B2, “Famciclovir and celecoxib combination therapy for functional somatic syndromes” (INNOVATIVE MED CONCEPTS, LLC, priority 2012, dated 2018).
# At least one structure is not confirmed: it was looked up by name or label, or the drawing left a doubt.
# Test system: herpes viral reactivation in the nervous system
# Conditions: nervous system of mice; Gebhardt et al. 2005
compound,measurement,value
Cc1ccc(-c2cc(C(F)(F)F)nn2-c2ccc(S(N)(=O)=O)cc2)cc1 [celecoxib],Hyperthermic stress-induced herpes viral reactivation,can suppress hyperthermic stress-induced herpes viral reactivation
